These are yes or no findings as the source states them, for the method shown. Some results given as binding are weak or reduced against the parent protein; the word gives no strength.

Amino acid sequences for entries named in this document (tags omitted). A change or cut given only in a name is not applied to a line headed by its entry.
UniProt P29460: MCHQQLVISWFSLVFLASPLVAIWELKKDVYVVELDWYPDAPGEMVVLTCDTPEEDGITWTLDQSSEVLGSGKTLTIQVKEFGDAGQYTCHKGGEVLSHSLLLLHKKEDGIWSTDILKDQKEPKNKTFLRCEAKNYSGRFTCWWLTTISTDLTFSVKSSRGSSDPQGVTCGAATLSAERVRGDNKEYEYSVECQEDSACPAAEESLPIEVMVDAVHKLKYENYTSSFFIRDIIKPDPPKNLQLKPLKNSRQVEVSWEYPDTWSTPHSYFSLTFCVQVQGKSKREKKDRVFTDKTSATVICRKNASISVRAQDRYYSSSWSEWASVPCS
UniProt P29459: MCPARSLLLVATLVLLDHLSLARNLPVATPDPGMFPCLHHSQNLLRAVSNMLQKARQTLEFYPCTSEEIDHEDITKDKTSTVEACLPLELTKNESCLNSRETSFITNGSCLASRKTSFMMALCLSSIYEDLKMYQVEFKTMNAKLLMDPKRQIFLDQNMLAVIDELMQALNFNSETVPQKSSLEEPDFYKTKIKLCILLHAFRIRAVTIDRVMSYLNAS

This assay has as its target free 40 kDa subunit of CLMF (non-reduced) (human) (UniProt P29460). Put plainly: SDS-PAGE under reducing and non-reducing conditions.

For the substance “35 kDa subunit of CLMF (from UniProt P29459 23-219) (ligand)”, the binding entry is “binds”.

The record behind these values is US8110187.
